From PMC3422239 come the findings set out here.

For the assay, the target named is T1, endogenous IRS-2 of mouse liver (mouse (endogenous in C57Bl/6 liver)) (UniProt P81122).
T1 sequence: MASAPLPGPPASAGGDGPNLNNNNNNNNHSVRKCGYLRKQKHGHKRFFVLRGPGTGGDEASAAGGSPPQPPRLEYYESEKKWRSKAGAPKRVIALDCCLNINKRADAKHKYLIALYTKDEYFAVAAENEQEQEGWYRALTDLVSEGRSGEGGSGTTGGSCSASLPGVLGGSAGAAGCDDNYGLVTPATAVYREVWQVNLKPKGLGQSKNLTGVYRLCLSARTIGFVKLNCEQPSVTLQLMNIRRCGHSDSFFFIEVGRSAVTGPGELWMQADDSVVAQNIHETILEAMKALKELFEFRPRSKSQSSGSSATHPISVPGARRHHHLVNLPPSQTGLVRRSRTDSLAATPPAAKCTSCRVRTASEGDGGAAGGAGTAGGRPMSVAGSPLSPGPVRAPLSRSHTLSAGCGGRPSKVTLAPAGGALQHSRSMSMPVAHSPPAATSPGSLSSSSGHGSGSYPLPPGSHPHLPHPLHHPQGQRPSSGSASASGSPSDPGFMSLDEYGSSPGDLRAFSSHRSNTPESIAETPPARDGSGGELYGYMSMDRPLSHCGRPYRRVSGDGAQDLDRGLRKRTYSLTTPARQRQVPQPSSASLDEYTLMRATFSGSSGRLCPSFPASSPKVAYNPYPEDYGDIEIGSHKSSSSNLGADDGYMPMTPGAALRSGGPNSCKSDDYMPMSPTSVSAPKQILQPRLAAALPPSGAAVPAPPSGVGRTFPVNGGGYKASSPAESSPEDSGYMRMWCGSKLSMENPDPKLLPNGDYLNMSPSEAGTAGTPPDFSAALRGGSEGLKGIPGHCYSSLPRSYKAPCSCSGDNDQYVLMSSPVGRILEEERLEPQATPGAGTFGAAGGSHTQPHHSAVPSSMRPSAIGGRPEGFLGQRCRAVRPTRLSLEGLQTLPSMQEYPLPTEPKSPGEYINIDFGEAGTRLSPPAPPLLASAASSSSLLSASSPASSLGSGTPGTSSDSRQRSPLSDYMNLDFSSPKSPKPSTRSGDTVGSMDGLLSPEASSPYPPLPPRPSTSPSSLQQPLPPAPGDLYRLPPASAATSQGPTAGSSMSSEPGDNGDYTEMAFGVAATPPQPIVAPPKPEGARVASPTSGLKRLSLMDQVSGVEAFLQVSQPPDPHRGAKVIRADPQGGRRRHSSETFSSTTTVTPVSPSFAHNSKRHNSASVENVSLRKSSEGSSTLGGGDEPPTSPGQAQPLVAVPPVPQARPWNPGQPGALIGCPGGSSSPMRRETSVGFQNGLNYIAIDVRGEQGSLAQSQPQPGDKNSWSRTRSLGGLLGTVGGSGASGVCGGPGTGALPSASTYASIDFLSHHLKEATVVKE
Nature of the assay: far-Western, overlay or dot blot; IRS-2 immunoprecipitated with IRS-2 antibody from 500 µg mouse liver protein, SDS-PAGE, nitrocellulose; overlay with 14-3-3ζ-HRP; mice fasted, insulin injected (10 or 30 min) or refed 4 hours; both purified.

No constants are given. Whether binding was seen depends on the method and setting. Binding can be weak; no strength is given.

Turning to Recombinant human 14-3-3ζ-HRP, the binding result is “binds”.
